# The other results are listed elsewhere or left out. Many values rest on one well or one pass, so single values are uncertain.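 The apoptosis fraction was the count of cleaved-PARP antibody-stained nuclei relative to all DNA-stained nuclei, imaged in 1,536-well plates. Screening doses were set so most cells survived, and baseline and induced cleaved-PARP levels vary greatly across cell lines.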
# Columns and labels:
# Assay in all cases: cleaved PARP positive nuclei fraction relative to DMSO control; melanoma cells; higher = more apoptosis
# Conditions in all cases: library dose: low library concentration; 72 h
# COLO792 = system: COLO792
# COLO800 = system: COLO800
# COLO829 = system: COLO829
# G361 = system: G361
# IPC-298 = system: IPC-298
# IST-MEL1 = system: IST-MEL1
# LB2518-MEL = system: LB2518-MEL
# LOXIMVI = system: LOXIMVI
# MEL-HO = system: MEL-HO
# MZ2-MEL = system: MZ2-MEL
# MeWo = system: MeWo
# RPMI7951 = system: RPMI7951
# RVH-421 = system: RVH-421
# SkMel28 = system: SkMel28
# SkMel2 = system: SkMel2
# SkMel30 = system: SkMel30
# SkMel5 = system: SkMel5
# UACC257 = system: UACC257
# UACC62 = system: UACC62
SMILES,cleaved PARP positive nuclei fraction (COLO792) [%],cleaved PARP positive nuclei fraction (COLO800) [%],cleaved PARP positive nuclei fraction (COLO829) [%],cleaved PARP positive nuclei fraction (G361) [%],cleaved PARP positive nuclei fraction (IPC-298) [%],cleaved PARP positive nuclei fraction (IST-MEL1) [%],cleaved PARP positive nuclei fraction (LB2518-MEL) [%],cleaved PARP positive nuclei fraction (LOXIMVI) [%],cleaved PARP positive nuclei fraction (MEL-HO) [%],cleaved PARP positive nuclei fraction (MZ2-MEL) [%],cleaved PARP positive nuclei fraction (MeWo) [%],cleaved PARP positive nuclei fraction (RPMI7951) [%],cleaved PARP positive nuclei fraction (RVH-421) [%],cleaved PARP positive nuclei fraction (SkMel28) [%],cleaved PARP positive nuclei fraction (SkMel2) [%],cleaved PARP positive nuclei fraction (SkMel30) [%],cleaved PARP positive nuclei fraction (SkMel5) [%],cleaved PARP positive nuclei fraction (UACC257) [%],cleaved PARP positive nuclei fraction (UACC62) [%]
"Cc1cn(-c2cc(NC(=O)c3ccc(C)c(Nc4nccc(-c5cccnc5)n4)c3)cc(C(F)(F)F)c2)cn1 [nilotinib] + NC(=O)Nc1cc(-c2cccc(F)c2)sc1C(=O)N[C@H]1CCCNC1 [AZD7762] (first compound 0.2 µM, partner dose 0.02 µM)",117,105,122,127,44.1,1500,129,88.8,96.7,47.4,80.8,175,87,22.6,118,68.5,44.8,45.6,73
"CCCCCCCCCCCCCCCCCCOP(=O)([O-])OC1CC[N+](C)(C)CC1 [Perifosine] + NCC(=O)Nc1ccc(-n2nc(C(F)(F)F)cc2-c2ccc3c(ccc4ccccc43)c2)cc1 [OSU03012] (first compound 0.4 µM, partner dose 1 µM)",71.3,108,114,63.1,53,45.9,93.2,48.9,638,252,145,135,201,74,163,605,79.3,46.6,52
"COc1cc([C@@H]2c3cc4c(cc3[C@@H](O[C@@H]3O[C@@H]5CO[C@@H](C)O[C@H]5[C@H](O)[C@H]3O)[C@H]3COC(=O)[C@H]23)OCO4)cc(OC)c1O [etoposide] + CN(NC(=O)CC(=O)NN(C)C(=S)c1ccccc1)C(=S)c1ccccc1 [STA4783] (first compound 0.02 µM, partner dose 0.006 µM)",182,122,159,177,99.5,183,221,72.6,71.1,94.4,131,123,102,138,53.7,84.7,61.8,93.5,106
"Cc1cc(Nc2cc(N3CCN(C)CC3)nc(Sc3ccc(NC(=O)C4CC4)cc3)n2)n[nH]1 [Tozasertib] + NCC(=O)Nc1ccc(-n2nc(C(F)(F)F)cc2-c2ccc3c(ccc4ccccc43)c2)cc1 [OSU03012] (first compound 0.006 µM, partner dose 1 µM)",56.1,51.8,247,73.9,62.4,135,54.9,361,43.5,169,107,43.2,108,149,83.4,138,605,153,367

# — the supplement of paper PMC4604168 (melanoma cell lines)
